These results are taken from paper PMC7113306.

In the test the target is T1, BMP10 GF-domain from pro-BMP10 (human) (UniProt O95393).
T1 sequence: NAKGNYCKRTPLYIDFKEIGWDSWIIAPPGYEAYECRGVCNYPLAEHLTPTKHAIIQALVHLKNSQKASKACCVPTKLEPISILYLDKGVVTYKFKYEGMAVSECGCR
Briefly: SEC; analytical gel filtration, Superdex 200 10/300, 20 mM Tris.HCl, 150 mM NaCl, pH 7.4; 100 μg protein with 2-fold molar excess of ALK1 ECD; peaks checked by SDS-PAGE and anti-prodomain blot; both purified.

No constants are given. Whether binding was seen depends on the method and setting. A result given as binding can be weak or reduced; the word gives no strength.

As to “BMP10 prodomain (human) (domain or fragment)”, the binding entry is listed as “binds”.
